According to paper PMC13245411:
These are yes or no findings as the source states them, for the method shown. In cells and extracts the contact can be indirect. Some entries that bind do so weakly or less than the wild type. For some of these results: Where a sequence is shown, tags or fusion partners need not be part of it.

The chains behind the UniProt entries cited, without tags or fusion partners.
UniProt Q5VXU9: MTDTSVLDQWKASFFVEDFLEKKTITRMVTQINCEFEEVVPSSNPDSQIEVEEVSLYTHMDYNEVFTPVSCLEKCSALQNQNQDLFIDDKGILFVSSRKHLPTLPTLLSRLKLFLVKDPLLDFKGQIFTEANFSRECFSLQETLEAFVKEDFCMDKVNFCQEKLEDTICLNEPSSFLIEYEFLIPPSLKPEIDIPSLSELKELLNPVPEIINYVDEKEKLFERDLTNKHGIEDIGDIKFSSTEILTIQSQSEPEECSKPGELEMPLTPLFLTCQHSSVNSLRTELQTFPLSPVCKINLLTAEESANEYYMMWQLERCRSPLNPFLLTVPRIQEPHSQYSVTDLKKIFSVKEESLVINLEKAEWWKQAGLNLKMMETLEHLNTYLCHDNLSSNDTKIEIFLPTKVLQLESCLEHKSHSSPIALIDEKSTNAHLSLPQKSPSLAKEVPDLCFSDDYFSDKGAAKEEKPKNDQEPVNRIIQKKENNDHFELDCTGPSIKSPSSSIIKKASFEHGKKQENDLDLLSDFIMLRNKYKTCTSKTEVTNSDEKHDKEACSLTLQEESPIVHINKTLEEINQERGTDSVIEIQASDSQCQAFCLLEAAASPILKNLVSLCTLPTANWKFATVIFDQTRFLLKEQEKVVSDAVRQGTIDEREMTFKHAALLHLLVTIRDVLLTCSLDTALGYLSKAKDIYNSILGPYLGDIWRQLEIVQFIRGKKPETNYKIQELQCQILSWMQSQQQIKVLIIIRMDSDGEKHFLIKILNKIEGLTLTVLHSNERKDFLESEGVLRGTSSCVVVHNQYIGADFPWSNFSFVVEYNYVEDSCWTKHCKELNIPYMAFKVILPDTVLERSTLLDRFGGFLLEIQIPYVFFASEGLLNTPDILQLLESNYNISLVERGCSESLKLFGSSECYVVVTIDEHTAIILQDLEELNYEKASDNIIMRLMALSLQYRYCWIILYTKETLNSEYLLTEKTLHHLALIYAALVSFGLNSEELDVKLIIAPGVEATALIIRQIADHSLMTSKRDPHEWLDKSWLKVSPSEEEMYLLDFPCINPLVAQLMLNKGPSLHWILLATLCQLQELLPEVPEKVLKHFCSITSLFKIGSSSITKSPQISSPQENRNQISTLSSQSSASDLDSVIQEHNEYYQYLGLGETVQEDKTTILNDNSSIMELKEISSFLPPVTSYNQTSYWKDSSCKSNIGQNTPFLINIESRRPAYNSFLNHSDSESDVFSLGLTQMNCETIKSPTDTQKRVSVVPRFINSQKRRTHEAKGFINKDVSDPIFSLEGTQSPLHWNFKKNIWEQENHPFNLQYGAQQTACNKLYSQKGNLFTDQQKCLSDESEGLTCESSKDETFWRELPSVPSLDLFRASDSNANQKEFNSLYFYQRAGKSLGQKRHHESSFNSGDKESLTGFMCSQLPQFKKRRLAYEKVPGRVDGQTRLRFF

Columns and labels:
[1] = biological target: T1, mouse TEX11-nVenus (mouse) (UniProt Q14AT2); test: split reporter; Bi-FC with Venus fragments VN210 and VC210 fused to the two proteins, transfected into HeLa cells, fluorescence imaging
T1 sequence: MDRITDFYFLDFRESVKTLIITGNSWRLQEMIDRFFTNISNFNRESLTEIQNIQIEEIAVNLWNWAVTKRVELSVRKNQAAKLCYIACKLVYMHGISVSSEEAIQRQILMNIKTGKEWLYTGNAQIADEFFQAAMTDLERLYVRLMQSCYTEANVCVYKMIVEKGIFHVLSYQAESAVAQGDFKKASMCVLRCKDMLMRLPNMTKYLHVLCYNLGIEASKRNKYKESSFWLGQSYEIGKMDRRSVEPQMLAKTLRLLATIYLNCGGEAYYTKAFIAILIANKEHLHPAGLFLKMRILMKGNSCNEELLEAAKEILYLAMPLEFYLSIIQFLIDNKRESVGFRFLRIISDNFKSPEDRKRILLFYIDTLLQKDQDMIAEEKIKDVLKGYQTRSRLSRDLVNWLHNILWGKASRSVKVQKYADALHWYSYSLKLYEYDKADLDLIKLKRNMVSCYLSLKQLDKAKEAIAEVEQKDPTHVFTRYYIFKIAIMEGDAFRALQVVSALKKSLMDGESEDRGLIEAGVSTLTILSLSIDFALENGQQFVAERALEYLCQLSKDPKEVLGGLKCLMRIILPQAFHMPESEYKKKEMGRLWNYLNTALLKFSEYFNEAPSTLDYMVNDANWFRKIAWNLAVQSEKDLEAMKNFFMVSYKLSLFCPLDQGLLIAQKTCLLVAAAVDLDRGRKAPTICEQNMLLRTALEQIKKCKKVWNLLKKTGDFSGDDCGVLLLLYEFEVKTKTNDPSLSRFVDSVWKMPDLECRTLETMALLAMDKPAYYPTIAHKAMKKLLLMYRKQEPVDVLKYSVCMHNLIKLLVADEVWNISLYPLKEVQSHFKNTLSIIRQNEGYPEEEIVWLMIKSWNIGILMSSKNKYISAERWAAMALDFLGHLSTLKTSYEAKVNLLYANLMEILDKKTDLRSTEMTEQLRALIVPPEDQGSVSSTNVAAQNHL

[2] = biological target: mouse SHOC1 N-terminal 1–625 (mouse) (UniProt A2ALV5); test: co-IP; tagged proteins co-expressed in pairs in HEK293T; immunoprecipitated from cell lysates by tag-specific antibodies, Western blot; IP lysis buffer 20 mM HEPES, 150 mM NaCl, 0.5% NP-40, 1 mM DTT, pH 7.3; 4°C (Fig. 1A, B; Supplementary Fig. S2C, D)
[3] = biological target: mouse SHOC1 ΔF3 (aa626-1154del) (mouse) (UniProt A2ALV5); test: as above
[4] = biological target: mouse SHOC1 ΔF4 (aa1155-1482del) (mouse) (UniProt A2ALV5); test: as above
[5] = biological target: mouse SHOC1 ΔF2 (aa313-625del) (mouse) (UniProt A2ALV5); test: as above
[6] = biological target: T2, mouse HA-tagged TEX11 (mouse) (UniProt Q14AT2); test: co-IP; TEX11 with SPO16 or C1orf146, with or without SHOC1 co-expressed (Supplementary Fig. S1A, B)
T2 sequence: T1 sequence

[7] = biological target: human FLAG-tagged SHOC1 (human) (UniProt Q5VXU9); test: co-IP; tagged proteins co-expressed in pairs in HEK293T; immunoprecipitated from cell lysates by tag-specific antibodies, Western blot; IP lysis buffer 20 mM HEPES, 150 mM NaCl, 0.5% NP-40, 1 mM DTT, pH 7.3; 4°C (Fig. 1A, B; Supplementary Fig. S2C, D)
[8] = biological target: T3, human MYC-tagged TEX11 (human) (UniProt Q8IYF3); test: co-IP; TEX11 with SPO16 or C1orf146, with or without SHOC1 co-expressed (Supplementary Fig. S1A, B)
T3 sequence: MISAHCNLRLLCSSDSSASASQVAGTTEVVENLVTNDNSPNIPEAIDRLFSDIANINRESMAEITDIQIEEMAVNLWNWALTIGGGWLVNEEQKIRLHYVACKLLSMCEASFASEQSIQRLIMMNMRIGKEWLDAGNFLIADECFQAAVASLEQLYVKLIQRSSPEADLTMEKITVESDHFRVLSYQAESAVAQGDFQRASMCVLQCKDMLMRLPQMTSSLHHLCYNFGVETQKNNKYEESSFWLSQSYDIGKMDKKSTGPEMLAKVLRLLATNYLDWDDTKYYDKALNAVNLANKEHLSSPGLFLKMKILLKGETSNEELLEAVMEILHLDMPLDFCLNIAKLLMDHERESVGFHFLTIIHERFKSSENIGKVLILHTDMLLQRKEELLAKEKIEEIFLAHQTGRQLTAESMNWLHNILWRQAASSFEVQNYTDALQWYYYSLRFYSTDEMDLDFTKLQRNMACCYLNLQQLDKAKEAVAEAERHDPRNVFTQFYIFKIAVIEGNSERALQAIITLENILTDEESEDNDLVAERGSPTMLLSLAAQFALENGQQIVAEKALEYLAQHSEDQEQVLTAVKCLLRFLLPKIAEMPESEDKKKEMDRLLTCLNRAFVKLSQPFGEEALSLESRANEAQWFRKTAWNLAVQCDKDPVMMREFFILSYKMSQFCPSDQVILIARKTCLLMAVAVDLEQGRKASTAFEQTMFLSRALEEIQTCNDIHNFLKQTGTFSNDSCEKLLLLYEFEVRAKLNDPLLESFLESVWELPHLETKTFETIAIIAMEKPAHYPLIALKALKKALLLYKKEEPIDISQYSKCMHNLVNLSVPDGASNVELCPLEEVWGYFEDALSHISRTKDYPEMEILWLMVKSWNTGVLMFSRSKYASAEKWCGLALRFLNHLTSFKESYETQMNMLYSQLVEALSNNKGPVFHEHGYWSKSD

[9] = biological target: human SHOC1-nVenus (human) (UniProt Q5VXU9); test: split reporter; Bi-FC with Venus fragments VN210 and VC210 fused to the two proteins, transfected into HeLa cells, fluorescence imaging
[10] = biological target: T4, human TEX11-nVenus (human) (UniProt Q8IYF3); test: as above
T4 sequence: T3 sequence

B1: mouse SPO16-cVenus (protein, UniProt Q3KQP7 1-186)
chain: MAMDERRGKERVQWTTTIIISSSLKSYEIATALENRSHKVRYSDTLESGSIVFSLSGVAFLLMDAKECMTSAEEIFVTKIEKFINIHQNSFLVLFAPLHGPEEWSLMFRIHQRFLGSNLRILPVHNTVNALDLMCTIAKTTSKPHIDSICYRMITTKAYIIEQSPVWRTLQKIKLSSDSVSADSGE
- binding [1]: binds

B2: mouse HA-tagged TEX11 (protein, UniProt Q14AT2 1-947)
chain: T1 sequence
- binding [2]: binds
- binding [3]: binds
- binding [4]: binds
- binding [5]: binds

B3: mouse HA-tagged SPO16 (protein, UniProt Q3KQP7 1-186)
chain: B1 chain
- binding [6]: binds

B4: human MYC-tagged C1orf146 (protein, UniProt Q5VVC0 1-180)
chain: MAESGKEKIKWTTTIIISSSLKSYEVATALENRSHKVRYSDSVENGSIIFSLSGVAFLLMDTKECLLSTEEIFLAKIEKFINIHQNSFLVLSAALHGPEEWKLMFRIQQRFLGCNLRILPVHNTVNAINLMCTIAKTTSKPYIDSICYRMITAKAYIIEQSPVWKTLQKIKLNSDSVNPN
- binding [7]: no binding
- binding [8]: no binding

B5: human C1orf146-cVenus (protein, UniProt Q5VVC0 1-180)
chain: B4 chain
- binding [9]: no binding
- binding [10]: no binding
